According to patent publication US20220023279A1, “COMPOSITIONS FOR TREATMENT OF SYMPHYSIOLYSIS” (priority 2018, published 2022):
Counter-ions that a name gives are not always drawn.

System: patient suffering from symphysiolysis
Details: after 30 minutes; 5 ml lidocaine HCl 1%, subcutaneous, both sides

CCN(CC)CC(=O)Nc1c(C)cccc1C [lidocaine HCl]
stability in walking: increased
